## Screening data, single-dose tests

By UniProt entry, the sequences of proteins in these tests, tags left out.
UniProt P9WFT3, whole entry: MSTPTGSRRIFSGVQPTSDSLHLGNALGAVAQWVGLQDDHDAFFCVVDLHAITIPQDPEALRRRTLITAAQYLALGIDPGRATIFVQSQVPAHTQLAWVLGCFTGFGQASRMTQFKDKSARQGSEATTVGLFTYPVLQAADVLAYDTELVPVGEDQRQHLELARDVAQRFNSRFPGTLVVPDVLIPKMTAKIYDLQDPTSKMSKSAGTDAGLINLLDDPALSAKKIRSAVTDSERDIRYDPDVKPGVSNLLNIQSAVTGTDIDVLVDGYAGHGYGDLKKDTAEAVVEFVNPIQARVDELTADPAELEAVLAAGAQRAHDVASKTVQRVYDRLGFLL
UniProt P9WPC5, whole entry: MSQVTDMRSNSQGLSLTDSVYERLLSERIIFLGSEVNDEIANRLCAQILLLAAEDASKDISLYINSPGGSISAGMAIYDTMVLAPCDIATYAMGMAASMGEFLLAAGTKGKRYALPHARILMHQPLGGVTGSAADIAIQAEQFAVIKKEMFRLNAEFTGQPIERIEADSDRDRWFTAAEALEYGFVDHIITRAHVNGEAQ
UniProt P9WPC3, whole entry partner: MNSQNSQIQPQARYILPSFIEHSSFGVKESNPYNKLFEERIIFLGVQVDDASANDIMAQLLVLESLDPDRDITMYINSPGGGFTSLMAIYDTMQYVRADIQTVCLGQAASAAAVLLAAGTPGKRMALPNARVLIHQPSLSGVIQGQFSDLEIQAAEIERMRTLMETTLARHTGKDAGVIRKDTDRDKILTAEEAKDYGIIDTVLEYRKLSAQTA

A: 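Tryptophan-tRNA ligase, Mycobacterium tuberculosis (UniProt P9WFT3). Enzyme assay of tryptophanyl-tRNA synthetase; the read-out is not stated. Compounds at 10 µM. Direction is not recorded; retested compounds ran higher, which suggests that high means inhibition. Size under these conditions: about 65,000 compounds, about 64 of them at 50% or above in at least one test.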
B: 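Protease assay of ClpP1P2, read by the AMC dye that it sets free. Target: ClpP1P2, Mycobacterium tuberculosis (UniProt P9WPC5 and UniProt P9WPC3). Tested at 50 µM. Higher reads as stronger inhibition, judged from the few compounds that gave an IC50. Most other retested compounds had strongly negative values. About 69,000 compounds were tested under these conditions; 0.015% (about 10) showed 50% or more at least once.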

Values are the deposited “Percent Effect”, in %.
The record does not define 0% and 100%; most values in the screen are far below 50% and negative numbers occur (in some assays of this library far below -100).
This is an unselected part of the compounds tested.

* CC(NC(=O)N1CCCN(CC(F)F)CC1)c1ccco1 (centres unmarked) : A: -1.34%; B: -5.851%
* Cc1cnc(NC(=O)N2CCC(N3CCCCC3=O)CC2)s1 : A: -2.124%; B: -6.155%
* Cn1ccnc1CN1C[C@H]2CN(S(=O)(=O)c3ccccc3)CCN2C1=O : A: 1.602%; B: -2.012%
* O=C(NCC(c1cccs1)N1CCOCC1)c1ccc(F)cc1Cl (centres unmarked) : A: -0.09234%; B: 9.297%
* COc1ccc(-c2nnc(SCC(=O)NCC(C)C)[nH]2)c(OC)c1 : A: 2.648%; B: -2.159%
* CSC(C)C(=O)N1CCCN(Cc2cscn2)CC1 (centres unmarked) : A: -0.6289%; B: 19.17%
* COC(C)c1noc(CN(C)c2ncc(Br)cn2)n1 (centres unmarked) : A: -3.003%; B: -8.751%
* Cc1cc2ccccc2n1CCC(=O)NCc1ncc[nH]1 : A: -1.421%; B: 10.91%
* O=C(NCCc1c[nH]cn1)c1n[nH]c2c1CCC2 : A: -0.6159%; B: 3.752%
* COC[C@]12COC[C@H]1CN(S(=O)(=O)c1cccnc1)C2 : A: -3.594%; B: 2.167%
* Cc1nn(CCO)c(C)c1CNCc1cccnc1N(C)C : A: -5.404%; B: -5.264%
* O=C(CC1CC1)NC[C@]12COC[C@H]1CN(c1ncc(F)cn1)C2 : A: -8.727%; B: -0.07258%
* CN(CC(F)(F)F)C(=O)CNC(=O)N1CCCC(N(C)C)C1 (centres unmarked) : A: -3.024%; B: -10.02%
* CC(C)N(C)Cc1nnc2n1CCN(CC1CC1)CC2 : A: 1.903%; B: -1.98%
* CC(=O)c1c(O)n(C)c2ccc(F)cc12 : A: -3.018%; B: -8.189%
* O=C(NCCNc1ncccn1)C1CC(=O)N(CC2CC2)C1 (centres unmarked) : A: 11.72%; B: -18.2%
* Cn1cccc1-c1cc(C(=O)NCCCc2csc(N)n2)[nH]n1 : A: 5.365%; B: 1.799%
* COc1cccc2c1OCC(C(=O)N(C)CCCc1cnn(C)c1)C2 (centres unmarked) : A: -1.069%; B: -16.19%
* NCC1CCCCN1C(=O)Cc1cccc(Cl)c1 (centres unmarked) : A: 0.3112%; B: -1.199%
* CC(=O)N1CCN(C(=O)NCc2cccnc2OC(C)C)CC1 : A: 16.35%; B: -9.752%
* CN1C[C@@H](n2cnc(-c3ccccc3)c2-c2nccn2C)C[C@H]1C(=O)O : A: -2.987%; B: 3.273%
* O=C1NC2(CCN(C(=O)c3ccc(Cl)cn3)CC2)CC1c1ccccc1 (centres unmarked) : A: 4.894%; B: 9.202%
* O=C(NCC1CC2(CO1)CN(c1ncccn1)C2)C1CCC1 (centres unmarked) : B: -17.74%
* COCCNC(=O)[C@H]1CN(c2nnc(C)s2)C[C@H]2OCC[C@@H]12 : A: -0.5286%; B: 0.7038%
* N#Cc1c[nH]nc1NCc1ccc2c(c1)OCO2 : A: 7.362%; B: -3.42%
* COC(C)(C)C(=O)N1Cc2cnc(C(C)(C)C)nc2C1 : A: -2.294%; B: 2.18%
* CCN1CCc2cc(-c3cncn3CC(=O)NC(C)(C)C)ccc21 : A: -2.824%; B: -24.87%
* Cn1c(NCCC(=O)N2CCCC2)c(C#N)c(=O)n(C)c1=O : A: 3.916%; B: 4.894%
* CCCS(=O)(=O)N1CCC2(CN(c3ccccc3)C(=O)CN2C)C1 (centres unmarked) : A: 1.285%; B: -0.01146%
* O=C(Cc1ccccc1)C1CCCN(Cc2cncn2C2CCCC2)C1 (centres unmarked) : A: -0.6299%; B: -12.31%
* COc1ccc(CN2CCOC[C@H](Oc3cccnc3)C2)cc1 : A: -3.111%; B: 1.357%
* COc1ccc(NC(=O)CCNc2ncccn2)cn1 : A: 6.653%; B: -10.16%
* CCn1nc(C)c(NC(=O)CN(C)C(C)c2ccon2)c1C (centres unmarked) : A: 2.234%; B: -1.431%

Repeated from the top, 4 entries:

Compound,A,B
CC(NC(=O)N1CCCN(CC(F)F)CC1)c1ccco1 (centres unmarked),-1.34%,-5.851%
Cc1cnc(NC(=O)N2CCC(N3CCCCC3=O)CC2)s1,-2.124%,-6.155%
Cn1ccnc1CN1C[C@H]2CN(S(=O)(=O)c3ccccc3)CCN2C1=O,1.602%,-2.012%
O=C(NCC(c1cccs1)N1CCOCC1)c1ccc(F)cc1Cl (centres unmarked),-0.09234%,9.297%

Data taken from ChEMBL document CHEMBL3988442, “University of Dundee, Small-Polar-MMV Screening Library” (2021).